Results reported in patent publication US8754049B2, “Organic compound for the regulation of vectorial ion channels” (APEPTICO Forschung und Entwicklung GmbH, priority 2010, dated 2014).
Part of at least one peptide drawing is inferred or uncertain, most often the ends. Some entries repeat one wording, which the source may state once for all of them.

Protein sequences, listed by entry. Tags and fused reporters are not part of them. Lines headed by an entry give the natural chain unless they say otherwise; changes in a name come on top.
UniProt P37088: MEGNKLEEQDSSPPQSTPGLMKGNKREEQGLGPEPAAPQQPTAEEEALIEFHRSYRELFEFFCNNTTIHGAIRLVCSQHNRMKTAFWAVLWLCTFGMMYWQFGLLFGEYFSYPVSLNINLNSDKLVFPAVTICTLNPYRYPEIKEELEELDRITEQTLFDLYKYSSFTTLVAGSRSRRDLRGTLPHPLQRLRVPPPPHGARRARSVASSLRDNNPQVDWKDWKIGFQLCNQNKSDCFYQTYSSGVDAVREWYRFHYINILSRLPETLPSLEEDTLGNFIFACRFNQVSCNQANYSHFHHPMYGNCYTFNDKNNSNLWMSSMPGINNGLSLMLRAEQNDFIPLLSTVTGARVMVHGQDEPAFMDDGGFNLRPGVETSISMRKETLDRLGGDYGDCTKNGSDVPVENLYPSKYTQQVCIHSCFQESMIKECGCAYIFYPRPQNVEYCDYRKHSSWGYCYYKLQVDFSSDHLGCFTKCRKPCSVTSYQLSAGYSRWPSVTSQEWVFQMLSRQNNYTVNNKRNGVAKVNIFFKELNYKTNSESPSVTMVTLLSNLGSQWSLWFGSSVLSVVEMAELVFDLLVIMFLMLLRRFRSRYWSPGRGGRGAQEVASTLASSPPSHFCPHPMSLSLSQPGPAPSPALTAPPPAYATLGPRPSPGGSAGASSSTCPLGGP
UniProt P51168: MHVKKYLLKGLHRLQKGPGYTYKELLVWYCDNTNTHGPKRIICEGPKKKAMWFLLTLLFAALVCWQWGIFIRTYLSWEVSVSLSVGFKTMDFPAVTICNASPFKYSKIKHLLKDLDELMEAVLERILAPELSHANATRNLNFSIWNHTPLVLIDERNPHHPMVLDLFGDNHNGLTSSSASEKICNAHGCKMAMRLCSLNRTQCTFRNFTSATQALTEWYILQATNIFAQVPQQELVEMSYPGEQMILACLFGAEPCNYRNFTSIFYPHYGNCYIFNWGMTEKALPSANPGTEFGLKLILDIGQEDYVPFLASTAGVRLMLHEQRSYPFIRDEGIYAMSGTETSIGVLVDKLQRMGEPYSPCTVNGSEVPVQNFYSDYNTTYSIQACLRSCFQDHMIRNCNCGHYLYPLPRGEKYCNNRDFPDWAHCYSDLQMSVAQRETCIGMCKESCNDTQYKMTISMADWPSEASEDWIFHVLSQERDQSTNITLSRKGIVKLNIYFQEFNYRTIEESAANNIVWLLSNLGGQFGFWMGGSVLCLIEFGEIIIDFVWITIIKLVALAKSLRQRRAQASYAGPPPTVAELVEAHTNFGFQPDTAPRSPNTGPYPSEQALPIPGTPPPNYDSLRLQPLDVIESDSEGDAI
UniProt P51170: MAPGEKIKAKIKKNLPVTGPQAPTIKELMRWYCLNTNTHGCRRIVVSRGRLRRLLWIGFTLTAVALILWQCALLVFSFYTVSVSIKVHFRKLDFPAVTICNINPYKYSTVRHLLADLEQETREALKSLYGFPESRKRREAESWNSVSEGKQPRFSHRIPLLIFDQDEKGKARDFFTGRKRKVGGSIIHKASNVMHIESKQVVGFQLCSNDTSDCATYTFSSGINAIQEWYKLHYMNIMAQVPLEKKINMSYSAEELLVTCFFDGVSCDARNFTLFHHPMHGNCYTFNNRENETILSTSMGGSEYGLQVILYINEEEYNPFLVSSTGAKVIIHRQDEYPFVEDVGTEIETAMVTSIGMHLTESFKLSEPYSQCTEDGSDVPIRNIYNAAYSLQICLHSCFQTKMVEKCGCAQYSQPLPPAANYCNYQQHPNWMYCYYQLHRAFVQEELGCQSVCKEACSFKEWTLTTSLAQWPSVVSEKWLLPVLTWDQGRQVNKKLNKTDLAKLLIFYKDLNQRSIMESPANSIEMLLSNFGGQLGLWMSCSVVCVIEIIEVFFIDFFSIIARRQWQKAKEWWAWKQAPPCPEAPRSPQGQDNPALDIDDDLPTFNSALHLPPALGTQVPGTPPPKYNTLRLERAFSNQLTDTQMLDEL

Biological target: T1, epithelial sodium channels (Homo sapiens, UniProt P37088+P51168+P51170)
T1 construct: endogenous in cells; host or cells: A549 human lung epithelial cells (ATTC No. CCL-185)
Experiment: Patch-clamp measurement, whole cell configuration, amiloride-sensitive sodium current in A549 cells
Type: cell-based
Conditions: comparison in words
Description: The detection of a vectorial regulation of ion channels by a compound may be effected according to a method common in laboratories, for example, according to Clunes M. T. et al., J. Physiolo. (2004) 557.3: 809-819), via patch-clamp experiments. For patch-clamp examinations of ion channels, a glass cannula is stretched thin and filled with a neutral buffer solution. The glass cannula (patch-clamp pipette) is carefully pressed onto an intact epithelial cell. A piece of membrane is located below the pipette. An electrical resistance is thereby produced between the interior of the pipette and the external solution. An electrode attached to a sensitive amplifier dips into the pipette solution.
A regulation of the vectorial epithelial ion channels is detected via a change in the current intensity with a constant voltage.
The electrophysiological experiments were performed on human A549 cells (ATTC No. CCL-185). A549 cells are human lung epithelial cells which are involved in the diffusion of water and electrolytes in the lungs. The cells were suspended in RPMI-1640 medium (Sigma-Aldrich, product number R6504) with 1% penicillin/streptomycin and 10% fetal calf serum, transferred into plastic cell culture vessels and cultivated in an incubator with 95% air and 5% CO2 at 37° C. The medium was changed 2 to 3 times per week. The cells double within approx. 22 hours, and a cell concentration of more than 7×10^4 cells per cm^2 was not exceeded.
For the patch-clamp experiments, the cells were transferred onto small glass plates. […]
Cover slips with the cells cultivated thereon were transferred into a test bath with a capacity of 1 ml, fixed on the microscope table (Axiovert 100, 400-fold magnification), and the cells were superfused with the above-described bath solution. […] In the “whole cell” configuration, the membrane was penetrated beneath the electrode tip so that the current flowing through all ion channels of the cell could be measured. Upon obtaining a Gigaohm seal, a defined membrane retaining potential was applied via a pre-amplifier (CV-4 Headstage, Axon Instruments) and an amplifier (Axopatch 1 D, Axon Instr.) and the current thereby flowing through the ion channels was measured. […]
This protocol was performed before (control) and after the addition of ring-shaped organic molecules. The current dissipations thus obtained were stored and analyzed by means of the program PCLAMP 6.0. For this purpose, the current dissipations obtained in the presence of amiloride were subtracted from the currents recorded earlier so that the amiloride-sensitive sodium current through the epithelial sodium channels could be determined.

Compound: C[C@@H]1NC(=O)CNC(=O)[C@H](CCC(=O)O)NC(=O)[C@@H]2CCCN2C(=O)[C@H]([C@@H](C)O)NC(=O)[C@H](CCC(=O)O)NC(=O)[C@H](CCCNC(=N)N)NC(=O)[C@H](CCC(N)=O)NC(=O)CNC(=O)[C@@H](N)CCCNC(=O)CNC(=O)[C@H](Cc2ccc(O)cc2)NC(=O)[C@H](Cc2c[nH]c3ccccc23)NC(=O)[C@@H]2CCCN2C(=O)[C@H](CCCCN)NC(=O)[C@H](C)NC(=O)[C@H](CCC(=O)O)NC1=O [SEQ ID NO: 2, [ornithine-GQRETPEGAEAKPWYG] (cyclo Orn-delta1-G17)]
- activation of the vectorial ionic current compared with known peptides SEQ ID NO: 10, 11 and 12: significantly higher activations of the vectorial ionic current

Compound: C[C@@H]1NC(=O)CNC(=O)[C@H](CCC(=O)O)NC(=O)[C@@H]2CCCN2C(=O)[C@H]([C@@H](C)O)NC(=O)[C@H](CCC(=O)O)NC(=O)[C@H](CCCNC(=N)N)NC(=O)[C@H](CCC(N)=O)NC(=O)CNC(=O)[C@@H](N)CCCCNC(=O)CNC(=O)[C@H](Cc2ccc(O)cc2)NC(=O)[C@H](Cc2c[nH]c3ccccc23)NC(=O)[C@@H]2CCCN2C(=O)[C@H](CCCCN)NC(=O)[C@H](C)NC(=O)[C@H](CCC(=O)O)NC1=O [SEQ ID NO: 1, [KGQRETPEGAEAKPWYG] (cyclo Kepsilon1-G17)]
- activation of the vectorial ionic current compared with known peptides SEQ ID NO: 10, 11 and 12: significantly higher activations of the vectorial ionic current

Compound: C[C@@H]1NC(=O)CNC(=O)[C@H](CCC(=O)O)NC(=O)[C@@H]2CCCN2C(=O)[C@H]([C@@H](C)O)NC(=O)[C@H](CCC(=O)O)NC(=O)[C@H](CCCNC(=N)N)NC(=O)[C@H](CCC(N)=O)NC(=O)CNC(=O)CCNC(=O)CC[C@@H](C(=O)O)NC(=O)[C@H](Cc2ccc(O)cc2)NC(=O)[C@H](Cc2c[nH]c3ccccc23)NC(=O)[C@@H]2CCCN2C(=O)[C@H](CCCCN)NC(=O)[C@H](C)NC(=O)[C@H](CCC(=O)O)NC1=O [SEQ ID NO: 6, [3-amino-propanoic acid-GQRETPEGAEAKPWYE-OH] (cyclo 1-Eδ17)]
- activation of the vectorial ionic current compared with known peptides SEQ ID NO: 10, 11 and 12: significantly higher activations of the vectorial ionic current

Compound: C[C@@H]1NC(=O)CNC(=O)[C@H](CCC(=O)O)NC(=O)[C@@H]2CCCN2C(=O)[C@H]([C@@H](C)O)NC(=O)[C@H](CCC(=O)O)NC(=O)[C@H](CCCNC(=N)N)NC(=O)[C@H](CCC(N)=O)NC(=O)CNC(=O)CCCNC(=O)C[C@@H](C(=O)O)NC(=O)[C@H](Cc2ccc(O)cc2)NC(=O)[C@H](Cc2c[nH]c3ccccc23)NC(=O)[C@@H]2CCCN2C(=O)[C@H](CCCCN)NC(=O)[C@H](C)NC(=O)[C@H](CCC(=O)O)NC1=O [SEQ ID NO: 5, [gamma-aminobutyric acid-GQRETPEGAEAKPWYD-OH] (cyclo 1-Dγ17)]
- activation of the vectorial ionic current compared with known peptides SEQ ID NO: 10, 11 and 12: significantly higher activations of the vectorial ionic current
